Percent effect of library compounds

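Phenotypic screen: M. tuberculosis growth, glucose 7H9 medium, 3 days; the read-out is not stated. Concentration: 50 µM. Higher reads as more growth inhibition (inferred: compounds with an IC50 in retests scored well above the rest). Of about 69,000 compounds tested this way, about 760 (1.1%) reached 50% or more in at least one test.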

The filed quantity is “Percent Effect” (%).
How 0% and 100% were set is not recorded. Most values in the screen are low, and negative values occur.
Compounds were drawn at random from those tested, without regard to their results.
Two or more numbers in one place are separate tests of the same structure; such repeats can differ widely.

With Cc1cc(C(=O)NCCN2CCCC(C)C2)nn1C (centres undefined) the screen gave 2.978%.
With N#Cc1cccc(S(=O)(=O)NC(=O)COCC(F)(F)F)c1 the screen gave 15.82%.
With [H][C@@]12C[C@H](NC(=O)Cc3nc4nc(C)cc(C)n4n3)CN1CCN(C)C2 the screen gave -11.47%.
With CNC(=O)c1cc(C)nc(C2(C)CCCN2c2cc(C)ncn2)n1 (centres undefined) the screen gave -18.17%.
With Cc1noc(C)c1CCNc1nccc(CCC(F)(F)F)n1 the screen gave 23.37% and 30.12%.
With COc1cc(NCCNC(=O)c2cc[nH]c2C)cc(OC)c1 the screen gave 26.02% and 14.66%.
With Cn1ncc2c1C(COCC1CC1)CN(c1ncc(F)cn1)C2 (centres undefined) the screen gave -4.528%.
With O=C(NCCNS(=O)(=O)c1ccc2c(c1)CCCC2)c1ccoc1 the screen gave 18.26%.
With COCCNC(=O)N1CCCCC1CNC(=O)Nc1ccccc1 (centres undefined) the screen gave 2.08% and 1.783%.
With NC(=O)CCNC(=O)C1(N2CCCCC2)Cc2ccccc2C1 the screen gave 12.14%.
With Cn1ncc2c(N3CCN(C(N)=O)CC3)nc(C3CCCC3)nc21 the screen gave -24.8% and -18.39%.
With CC(C)Nc1ccnc(N2Cc3cnc(C(C)(C)C)nc3C2)n1 the screen gave 7.066%.
With Cc1ccc(CN2CCOC3(CCN(CC4CCOC4)CC3)C2)cc1.O=C(O)C(F)(F)F.O=C(O)C(F)(F)F (centres undefined) the screen gave 22.15%.
With N#CCCCn1nnc(C2(NC(=O)c3ccccc3)CCCC2)n1 the screen gave -11.76%.
With Cn1cc(I)c(C(=O)NCCCn2cc(Br)cn2)n1 the screen gave 17.79%.
With CC(C)c1nnsc1CNC(=O)C1CCN(C(=O)C2CC2)CC1 the screen gave -12.44%.
With COc1ccccc1-n1nc(-c2ccco2)n(CC(=O)NC(C)C)c1=O the screen gave 6.106%.
With O=C(O)C(F)(F)F.[H][C@@]12CCCO[C@]1([H])[C@H](NS(C)(=O)=O)CN2C(=O)c1cccnc1 the screen gave 5.078%.
With CC(C(=O)NCCCN1CCOCC1)n1cncn1 (centres undefined) the screen gave -47.59%.
With COc1ccc(Cl)cc1CN1CC(n2cccn2)C1 the screen gave -22.76% and -0.3847%.
With Cn1ccnc1C1CCN(CCN2CCOCC2)CC1 the screen gave 2.391%.
With O=C(O)C(F)(F)F.[H][C@@]12CCCO[C@]1([H])[C@H](N(C)C)CN2C(=O)Cc1ccc(F)cc1 the screen gave -44.93%.
With CC(C)CC(=O)N1Cc2ccccc2CC1C(=O)Nc1nncs1 (centres undefined) the screen gave -1.949%.
With Cc1nocc1C(=O)N1CCOC2(COCCN(CC3CC3)C2)C1 (centres undefined) the screen gave 27.65%.
With O=C(c1cccnc1-n1cncn1)N1CCN(CC2CC2)CC1 the screen gave 26.09%.
With Cc1nsc(NCc2ccc(CS(=O)(=O)NC(C)C)cc2)n1 the screen gave -3.874%.
With COCCN1CC2(CCCN(C(=O)NCCc3cccs3)C2)CCC1=O (centres undefined) the screen gave 0.4643%.
With Cc1nc(C2CCN(C(=O)c3cc(C4CC4)[nH]n3)CC2)no1 the screen gave -7.492%.
With COCC(=O)N1CCC2(C1)c1ccccc1S(=O)(=O)N2C (centres undefined) the screen gave 29.83%.
With c1cc(C2CCCN2CC2CCCCC2)n[nH]1 (centres undefined) the screen gave 27.66%.
With Cc1cnn(CC2CCN(CC(O)c3ccccc3Cl)CC2)c1 (centres undefined) the screen gave 2.488% and 5.432%.
With [H][C@]12CCC[C@@]1(COCC1CCOCC1)CN(C(=O)c1ccc(C)o1)C2 the screen gave 6.861%.
With COc1ccc2c(c1)s/c(=N\C(=O)CSCC(=O)Nc1nccs1)n2C the screen gave -67.47% and -3.429%.
With Cc1nc(C2CCCN(C(=O)c3ccc(OCC4CC4)nc3)C2)no1 (centres undefined) the screen gave 1.272%.
With Cc1cc(=O)n(CCNS(=O)(=O)c2ccc(F)c(Cl)c2)cn1 the screen gave 13.51%.
With CC(C)Cc1nc(CS(=O)(=O)c2ccccc2)no1 the screen gave 30.17%.
With CS(=O)(=O)NCCNCc1ccc(Br)s1.Cl the screen gave -6.067%.
With O=C(N1CCOCC1)N1CCOC[C@H](Oc2ccc(C(F)(F)F)cc2)C1 the screen gave 0.8021% and -2.956%.
With CC(=O)N1CCN(c2nc3c(cnn3C(C)(C)C)c(=O)[nH]2)CC1 the screen gave 21.15%.
With COc1cn(CC(=O)N2CCC(c3ccccc3)CC2)c(C)cc1=O the screen gave -5.351%.
With O=C(CC1CC1)NCc1cn2c(n1)CN(Cc1cccnc1)CC2.O=C(O)C(F)(F)F.O=C(O)C(F)(F)F the screen gave -2.477%.
With O=C(c1coc(CN2CCN(c3ccccc3F)CC2)n1)N1CCCC1 the screen gave -2.995%.
With COc1ccc(CNC(=O)NC2CCN(c3ccccc3)C2=O)cc1 (centres undefined) the screen gave 14.56%.
With COc1ccc(CNC(=O)c2ccc(=O)n(C)c2)cc1C the screen gave -13.03%.
With O=C(NCc1cc[nH]n1)N(CCCO)C1CCc2ccccc21 (centres undefined) the screen gave -2.854%.
With CC(C(=O)NCc1ccnc(N2CCCCCC2)c1)n1cccn1 (centres undefined) the screen gave 27.66%.
With Cc1cnn(CCC(=O)Nc2ccc(F)cc2OCC2CC2)c1 the screen gave -9.689%.
With Cc1n[nH]c(C)c1-c1nccnc1CC1CCN(C(C)C)CC1 the screen gave -45.91%.
With CC(C)(C)C(=O)N1CCCC1c1nc(O)cc(-c2ccccn2)n1 (centres undefined) the screen gave 16.11%.
With CN(C)CCN(C)C(=O)c1cn(CC2CCCCC2)nn1 the screen gave 20.85%.
With O=C(O)C(F)(F)F.[H][C@@]12CN(C(=O)CCOC)C[C@]1([H])C(=O)N(Cc1cccnc1)C2 the screen gave 3.794%.

The values are deposited in ChEMBL (CHEMBL3988442, “University of Dundee, Small-Polar-MMV Screening Library” (2021)).